Experimental data: PubChem BioAssay AID1224830 (NIAID, 2016)
Shown is an unselected part of about 18,000 deposited reagents. About 2,900 of them (16%) were called active. 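Calls are made per well; low scores hint the gene aids the LPS response, high scores that it dampens it.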 Repeated entries: four replicate wells of each siRNA pool.

Aim: 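Host factors that control LPS-induced TNF expression in human macrophages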 (primary screen)
Cell system: human THP-1 monocytic leukaemia cells, TNF dual-luciferase reporter clone, PMA-differentiated to macrophage-like cells
Knock-down reagent: siRNA pool against human genes, 50 nM
Timing: LPS for 4 h, given about 3 days after siRNA transfection
Treatment: bacterial LPS (TLR4 ligand), 10 ng/ml
Measurement: 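Ratio of firefly to renilla light, scaled to the plate median and expressed as a robust z-score per replicate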
Direction: TNF reporter robust z-score: higher = stronger TNF reporter response to LPS
Hit rule: 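a well is active when its z-score exceeds 2.8 or falls below -1.5; control wells carry no call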

LRRC17 (GeneID 10234) gave TNF reporter robust z-score -0.18; inactive.
Depletion of LRRC17 (GeneID 10234) gave: TNF reporter robust z-score 0.46; inactive.
LRRC17 (GeneID 10234) showed TNF reporter robust z-score -0.53; inactive.
For LRRC17 (GeneID 10234) the deposit lists TNF reporter robust z-score -0.65; inactive.
For ADAMTSL3 (GeneID 57188), the entry reads TNF reporter robust z-score 0.65; inactive.
ADAMTSL3 (GeneID 57188) scored TNF reporter robust z-score -0.42; inactive.
Against ADAMTSL3 (GeneID 57188) the deposit lists TNF reporter robust z-score -1.04; inactive.
For ADAMTSL3 (GeneID 57188), the entry reads TNF reporter robust z-score -0.1; inactive.
ATPAF1 (GeneID 64756) scored TNF reporter robust z-score 1.87; inactive.
Knock-down of ATPAF1 (GeneID 64756) came out at: TNF reporter robust z-score -0.34; inactive.
ATPAF1 (GeneID 64756) showed TNF reporter robust z-score -0.1; inactive.
After knock-down of ATPAF1 (GeneID 64756), the screen gave TNF reporter robust z-score 0.83; inactive.

3 successive records from above, for reference:
LRRC17 (GeneID 10234) → TNF reporter robust z-score: -0.18; Outcome: inactive
LRRC17 (GeneID 10234) → TNF reporter robust z-score: 0.46; Outcome: inactive
LRRC17 (GeneID 10234) → TNF reporter robust z-score: -0.53; Outcome: inactive

More reagents follow:
For RUNX3 (GeneID 864), the entry reads TNF reporter robust z-score 0.08; inactive.
For RUNX3 (GeneID 864), the entry reads TNF reporter robust z-score 0.71; inactive.
After knock-down of RUNX3 (GeneID 864) the results were TNF reporter robust z-score 0.52; inactive.
RUNX3 (GeneID 864) scored TNF reporter robust z-score 0.44; inactive.
Against TNK1 (GeneID 8711), the entry reads TNF reporter robust z-score -1.39; inactive.
Against TNK1 (GeneID 8711), the entry reads TNF reporter robust z-score 0.29; inactive.
With knock-down of TNK1 (GeneID 8711), the screen gave TNF reporter robust z-score -1.04; inactive.
Depletion of TNK1 (GeneID 8711) gave: TNF reporter robust z-score -1.12; inactive.
